From publication PMC8275679 come the findings set out here.

The chains behind the UniProt entries cited, without tags or fusion partners.
UniProt Q9EPK5: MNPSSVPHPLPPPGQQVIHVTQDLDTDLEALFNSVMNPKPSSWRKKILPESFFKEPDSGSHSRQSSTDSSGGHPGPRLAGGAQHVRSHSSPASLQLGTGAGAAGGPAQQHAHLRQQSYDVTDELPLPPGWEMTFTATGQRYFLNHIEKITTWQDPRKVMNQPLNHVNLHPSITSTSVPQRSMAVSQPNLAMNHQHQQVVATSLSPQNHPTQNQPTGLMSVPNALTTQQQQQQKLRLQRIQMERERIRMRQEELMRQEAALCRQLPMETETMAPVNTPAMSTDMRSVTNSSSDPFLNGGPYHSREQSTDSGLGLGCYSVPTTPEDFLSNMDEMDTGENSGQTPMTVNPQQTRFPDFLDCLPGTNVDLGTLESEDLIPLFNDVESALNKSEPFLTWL

The target in the test is Transcriptional coactivator with PDZ-binding motif (TAZ), Flag-tagged (UniProt Q9EPK5). The experiment in a line: co-IP; lysate of transduced BMMs in NP40 lysis buffer, 500 µg protein, precleared with Protein A- or Protein G-agarose, anti-Flag M2 agarose beads overnight at 4 °C, western blot. A general note: In western blotting, separated proteins are transferred to a membrane and probed.

Results are given in words; binding and its absence hold for the method and conditions named. In cells and extracts the contact can be indirect. Some entries that bind do so weakly or less than the wild type.

B1: TGF-β activated kinase 1 (TAK1) (protein, UniProt Q62073 1-579)
chain: MSTASAASSSSSSSASEMIEAPSQVLNFEEIDYKEIEVEEVVGRGAFGVVCKAKWRAKDVAIKQIESESERKAFIVELRQLSRVNHPNIVKLYGACLNPVCLVMEYAEGGSLYNVLHGAEPLPYYTAAHAMSWCLQCSQGVAYLHSMQPKALIHRDLKPPNLLLVAGGTVLKICDFGTACDIQTHMTNNKGSAAWMAPEVFEGSNYSEKCDVFSWGIILWEVITRRKPFDEIGGPAFRIMWAVHNGTRPPLIKNLPKPIESLMTRCWSKDPSQRPSMEEIVKIMTHLMRYFPGADEPLQYPCQYSDEGQSNSATSTGSFMDIASTNTSNKSDTNMEQVPATNDTIKRLESKLLKNQAKQQSESGRLSLGASRGSSVESLPPTSEGKRMSADMSEIEARIVATAGNGQPRRRSIQDLTVTGTEPGQVSSRSSSPSVRMITTSGPTSEKPARSHPWTPDDSTDTNGSDNSIPMAYLTLDHQLQPLAPCPNSKESMAVFEQHCKMAQEYMKVQTEIALLLQRKQELVAELDQDEKDQQNTSRLVQEHKKLLDENKSLSTYYQQCKKQLEVIRSQQQKRQGTS
On to B1, for which the binding entry is listed as “binds”.
